This is one part of the list.
Columns and labels:
Experiment in all cases: log2 fold change, soluble protein after heating vs DMSO (PISA); higher = thermal stabilisation; K562 lysate, 10 uM; active = over 0.2 and 3.5 SD of the protein, either way, in both replicates (recomputed)
vemurafenib = compound: CCCS(=O)(=O)Nc1ccc(F)c(C(=O)c2c[nH]c3ncc(-c4ccc(Cl)cc4)cc23)c1F [vemurafenib]
In short: (§1)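 K562 pellets were dounce-homogenised in PBS pH 7.4 with 1 mM MgCl2, and the crude extract at 1 mg/mL protein was treated with 10 μM compound for 30 min. Aliquots were heated for 3 min across 48°C-58°C, pooled, and brought to 0.5% NP-40 at 4°C; soluble protein was the supernatant after 21,000xg for 90 min. Soluble protein was quantified by TMTpro 16plex LC-MS/MS with channel sums equalised, and reported as log2 fold change in thermal stability against DMSO controls, with values from duplicates.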

Chains of the proteins cited; added tags and fusions are not shown. Lines headed by an entry give the natural chain unless they say otherwise; changes in a name come on top.
UniProt P07942: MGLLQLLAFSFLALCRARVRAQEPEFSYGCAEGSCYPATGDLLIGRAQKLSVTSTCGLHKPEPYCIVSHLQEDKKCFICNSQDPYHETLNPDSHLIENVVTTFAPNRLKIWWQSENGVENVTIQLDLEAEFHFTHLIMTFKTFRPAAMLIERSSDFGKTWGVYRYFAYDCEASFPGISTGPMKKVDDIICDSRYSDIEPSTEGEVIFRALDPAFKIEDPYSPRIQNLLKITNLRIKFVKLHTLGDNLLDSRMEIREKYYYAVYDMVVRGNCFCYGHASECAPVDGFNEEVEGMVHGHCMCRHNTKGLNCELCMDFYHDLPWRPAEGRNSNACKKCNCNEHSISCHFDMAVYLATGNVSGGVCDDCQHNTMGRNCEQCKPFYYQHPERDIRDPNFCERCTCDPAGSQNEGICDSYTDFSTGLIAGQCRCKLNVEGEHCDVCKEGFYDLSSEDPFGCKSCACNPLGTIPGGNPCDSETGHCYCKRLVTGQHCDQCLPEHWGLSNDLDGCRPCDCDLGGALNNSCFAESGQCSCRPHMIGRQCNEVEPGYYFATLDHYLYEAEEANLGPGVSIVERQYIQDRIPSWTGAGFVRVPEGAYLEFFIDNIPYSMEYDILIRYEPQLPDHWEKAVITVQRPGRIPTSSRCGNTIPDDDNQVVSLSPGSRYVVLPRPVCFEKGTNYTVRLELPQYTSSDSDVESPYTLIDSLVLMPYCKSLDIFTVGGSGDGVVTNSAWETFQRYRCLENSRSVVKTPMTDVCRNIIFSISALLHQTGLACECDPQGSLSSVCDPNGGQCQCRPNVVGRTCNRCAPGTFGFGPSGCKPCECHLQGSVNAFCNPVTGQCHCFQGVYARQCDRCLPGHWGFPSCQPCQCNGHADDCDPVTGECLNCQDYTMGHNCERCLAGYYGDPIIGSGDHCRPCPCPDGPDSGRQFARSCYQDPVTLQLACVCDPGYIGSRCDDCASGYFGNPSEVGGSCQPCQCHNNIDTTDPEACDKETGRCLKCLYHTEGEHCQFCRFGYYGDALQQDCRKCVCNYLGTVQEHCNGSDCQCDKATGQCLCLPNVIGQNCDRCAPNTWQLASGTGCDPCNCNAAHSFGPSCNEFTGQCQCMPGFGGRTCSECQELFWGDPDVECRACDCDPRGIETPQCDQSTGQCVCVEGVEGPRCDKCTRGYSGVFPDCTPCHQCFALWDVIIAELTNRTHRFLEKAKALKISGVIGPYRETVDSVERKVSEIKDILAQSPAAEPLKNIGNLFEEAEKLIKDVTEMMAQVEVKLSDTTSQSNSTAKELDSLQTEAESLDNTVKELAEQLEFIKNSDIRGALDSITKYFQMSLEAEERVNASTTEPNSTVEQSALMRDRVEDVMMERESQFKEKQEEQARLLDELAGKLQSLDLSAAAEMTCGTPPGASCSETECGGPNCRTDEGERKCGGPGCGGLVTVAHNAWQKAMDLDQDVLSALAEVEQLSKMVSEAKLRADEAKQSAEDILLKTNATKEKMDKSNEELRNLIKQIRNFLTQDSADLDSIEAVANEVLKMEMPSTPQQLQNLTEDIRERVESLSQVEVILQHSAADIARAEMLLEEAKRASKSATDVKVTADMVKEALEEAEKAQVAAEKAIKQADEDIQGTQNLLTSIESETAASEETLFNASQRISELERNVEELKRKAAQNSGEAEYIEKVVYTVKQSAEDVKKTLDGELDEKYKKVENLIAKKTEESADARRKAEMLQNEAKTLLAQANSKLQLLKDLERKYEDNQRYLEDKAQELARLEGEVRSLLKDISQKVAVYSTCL
UniProt P52294, whole entry, looked up: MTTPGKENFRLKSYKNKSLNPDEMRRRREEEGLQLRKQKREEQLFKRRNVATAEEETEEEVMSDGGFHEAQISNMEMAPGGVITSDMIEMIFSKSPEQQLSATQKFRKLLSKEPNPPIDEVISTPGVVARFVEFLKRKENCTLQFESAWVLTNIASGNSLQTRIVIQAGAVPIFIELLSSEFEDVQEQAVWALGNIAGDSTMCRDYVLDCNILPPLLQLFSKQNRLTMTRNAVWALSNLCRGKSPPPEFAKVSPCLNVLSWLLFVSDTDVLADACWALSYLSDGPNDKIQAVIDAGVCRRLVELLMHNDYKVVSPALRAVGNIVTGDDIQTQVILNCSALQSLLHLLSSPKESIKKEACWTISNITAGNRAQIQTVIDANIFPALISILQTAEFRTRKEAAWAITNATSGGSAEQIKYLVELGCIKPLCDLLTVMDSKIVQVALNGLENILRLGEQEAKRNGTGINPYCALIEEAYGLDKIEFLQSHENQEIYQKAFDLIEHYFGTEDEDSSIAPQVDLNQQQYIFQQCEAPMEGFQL
UniProt Q9NS86: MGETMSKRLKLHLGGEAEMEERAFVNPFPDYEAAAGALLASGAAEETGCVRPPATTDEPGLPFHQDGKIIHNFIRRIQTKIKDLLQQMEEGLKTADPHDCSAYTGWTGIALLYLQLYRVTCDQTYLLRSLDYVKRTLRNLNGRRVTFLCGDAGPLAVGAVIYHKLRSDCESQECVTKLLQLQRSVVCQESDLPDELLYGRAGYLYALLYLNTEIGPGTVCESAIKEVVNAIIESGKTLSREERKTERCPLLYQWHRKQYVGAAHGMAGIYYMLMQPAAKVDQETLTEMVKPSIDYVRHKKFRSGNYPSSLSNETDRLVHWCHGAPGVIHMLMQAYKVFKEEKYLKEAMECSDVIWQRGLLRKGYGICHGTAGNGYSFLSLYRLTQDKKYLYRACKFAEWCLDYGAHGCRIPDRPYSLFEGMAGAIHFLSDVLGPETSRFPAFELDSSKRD
UniProt Q9NSK0: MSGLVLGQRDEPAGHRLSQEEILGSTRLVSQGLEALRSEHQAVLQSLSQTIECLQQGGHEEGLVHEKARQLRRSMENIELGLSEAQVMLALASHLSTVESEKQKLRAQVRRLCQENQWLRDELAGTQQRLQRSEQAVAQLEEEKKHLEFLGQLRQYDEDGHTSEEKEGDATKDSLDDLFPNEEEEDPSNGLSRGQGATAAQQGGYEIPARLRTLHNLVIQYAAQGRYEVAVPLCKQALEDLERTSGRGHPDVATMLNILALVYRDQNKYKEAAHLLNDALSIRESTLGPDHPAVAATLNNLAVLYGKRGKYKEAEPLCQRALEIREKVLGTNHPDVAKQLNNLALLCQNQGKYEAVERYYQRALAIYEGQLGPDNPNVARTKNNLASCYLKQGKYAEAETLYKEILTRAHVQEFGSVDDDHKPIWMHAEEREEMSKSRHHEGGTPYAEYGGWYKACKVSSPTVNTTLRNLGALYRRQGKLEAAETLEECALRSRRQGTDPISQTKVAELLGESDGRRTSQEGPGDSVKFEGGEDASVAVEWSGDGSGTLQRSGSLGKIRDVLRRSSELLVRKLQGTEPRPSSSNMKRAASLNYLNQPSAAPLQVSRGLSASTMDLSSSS
UniProt Q2VIQ3: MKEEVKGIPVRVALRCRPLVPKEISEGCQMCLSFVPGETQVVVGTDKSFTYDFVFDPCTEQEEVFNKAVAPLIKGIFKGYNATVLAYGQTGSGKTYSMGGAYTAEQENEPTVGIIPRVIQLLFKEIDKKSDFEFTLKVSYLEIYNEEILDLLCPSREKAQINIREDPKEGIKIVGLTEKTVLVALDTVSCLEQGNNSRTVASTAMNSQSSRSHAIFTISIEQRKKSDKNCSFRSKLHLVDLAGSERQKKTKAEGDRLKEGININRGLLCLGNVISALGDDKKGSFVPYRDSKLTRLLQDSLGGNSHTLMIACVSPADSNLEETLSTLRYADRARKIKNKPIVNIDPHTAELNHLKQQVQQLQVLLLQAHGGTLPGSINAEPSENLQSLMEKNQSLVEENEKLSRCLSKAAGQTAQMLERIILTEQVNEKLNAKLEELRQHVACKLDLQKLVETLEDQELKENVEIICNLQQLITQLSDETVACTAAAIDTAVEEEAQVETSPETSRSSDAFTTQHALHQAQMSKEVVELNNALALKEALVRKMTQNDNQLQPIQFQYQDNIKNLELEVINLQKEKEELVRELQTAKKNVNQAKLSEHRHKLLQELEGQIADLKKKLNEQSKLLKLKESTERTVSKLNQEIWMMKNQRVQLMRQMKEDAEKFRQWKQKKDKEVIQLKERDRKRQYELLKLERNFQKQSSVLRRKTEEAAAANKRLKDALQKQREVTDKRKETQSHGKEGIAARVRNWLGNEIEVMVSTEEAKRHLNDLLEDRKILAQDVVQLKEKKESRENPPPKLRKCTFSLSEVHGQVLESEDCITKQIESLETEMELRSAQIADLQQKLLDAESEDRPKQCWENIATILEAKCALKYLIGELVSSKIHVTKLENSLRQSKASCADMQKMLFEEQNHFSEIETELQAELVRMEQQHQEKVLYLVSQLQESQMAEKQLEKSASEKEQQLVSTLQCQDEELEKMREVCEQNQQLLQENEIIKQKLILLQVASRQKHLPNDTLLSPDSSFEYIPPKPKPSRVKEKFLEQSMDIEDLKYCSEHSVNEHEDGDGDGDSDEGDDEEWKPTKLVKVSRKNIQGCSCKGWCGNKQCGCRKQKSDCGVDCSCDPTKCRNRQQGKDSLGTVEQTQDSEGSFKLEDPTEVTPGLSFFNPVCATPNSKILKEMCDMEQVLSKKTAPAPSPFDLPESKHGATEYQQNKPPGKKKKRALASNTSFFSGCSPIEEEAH
UniProt Q8N4N3: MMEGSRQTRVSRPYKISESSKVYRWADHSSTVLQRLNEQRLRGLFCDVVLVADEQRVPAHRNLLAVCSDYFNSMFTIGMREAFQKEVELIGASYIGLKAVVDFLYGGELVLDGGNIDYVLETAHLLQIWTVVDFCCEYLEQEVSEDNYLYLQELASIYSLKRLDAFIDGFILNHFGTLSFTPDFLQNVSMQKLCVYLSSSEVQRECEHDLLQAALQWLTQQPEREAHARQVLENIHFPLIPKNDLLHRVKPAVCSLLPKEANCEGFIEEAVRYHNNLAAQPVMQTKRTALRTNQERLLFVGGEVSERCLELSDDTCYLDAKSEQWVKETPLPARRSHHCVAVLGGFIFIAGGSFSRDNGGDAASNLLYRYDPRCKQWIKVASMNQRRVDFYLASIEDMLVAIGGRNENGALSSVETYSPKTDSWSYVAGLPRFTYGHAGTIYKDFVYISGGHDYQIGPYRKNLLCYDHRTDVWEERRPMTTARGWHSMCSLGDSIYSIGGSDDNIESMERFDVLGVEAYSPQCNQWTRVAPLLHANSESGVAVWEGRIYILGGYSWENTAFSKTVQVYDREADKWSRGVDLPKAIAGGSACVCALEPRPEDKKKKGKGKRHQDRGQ

[1] = compound: CCCS(=O)(=O)Nc1ccc(F)c(C(=O)c2c[nH]c3ncc(Cl)cc23)c1F
In short: as §1

barasertib = compound: CCN(CCCOc1ccc2c(Nc3cc(CC(=O)Nc4cccc(F)c4)[nH]n3)ncnc2c1)CCOP(=O)(O)O [barasertib]
In short: as §1

[2] = compound: CC[C@@H]1C(=O)N(C)c2cnc(Nc3ccc(C(=O)NC4CCN(C)CC4)cc3OC)nc2N1C1CCCC1
In short: as §1

volasertib = compound: CC[C@@H]1C(=O)N(C)c2cnc(Nc3ccc(C(=O)N[C@H]4CC[C@H](N5CCN(CC6CC6)CC5)CC4)cc3OC)nc2N1C(C)C [volasertib]
In short: as §1

[3] = compound: CCn1c(C(=O)N(C2CC2)C2CC2)cc2c3c(ncn3C)c(Nc3cc(C)n(C)n3)nc21
In short: as §1

[4] = compound: CCn1cc(-c2ccnc3[nH]c(-c4cccc(CN(C)C)c4)cc23)c(-c2ccc(NC(=O)N(C)C)cc2)n1
In short: as §1

[5] = compound: CN1CCC(CNc2ccc3ncc(-c4cccc(OC(F)(F)F)c4)n3n2)CC1
In short: as §1

saracatinib = compound: CN1CCN(CCOc2cc(OC3CCOCC3)c3c(Nc4c(Cl)ccc5c4OCO5)ncnc3c2)CC1 [saracatinib]
In short: as §1

sotrastaurin = compound: CN1CCN(c2nc(C3=C(c4c[nH]c5ccccc45)C(=O)NC3=O)c3ccccc3n2)CC1 [sotrastaurin]
In short: as §1

alvocidib = compound: CN1CC[C@H](c2c(O)cc(O)c3c(=O)cc(-c4ccccc4Cl)oc23)[C@H](O)C1 [alvocidib]
In short: as §1

Tubastatin A = compound: CN1CCc2c(c3ccccc3n2Cc2ccc(C(=O)NO)cc2)C1 [Tubastatin A]
In short: as §1

[6] = compound: CNC(=O)C1=CC=CC=C1NC2=NC(=NC=C2Cl)NC3=C(C=C(C=C3)N4CCOCC4)OC
In short: as §1

defactinib = compound: CNC(=O)c1ccc(Nc2ncc(C(F)(F)F)c(NCc3nccnc3N(C)S(C)(=O)=O)n2)cc1 [defactinib]
In short: as §1

[7] = compound: CNc1nc(-c2ccc3c(N)n[nH]c3c2)cc(N2C[C@@H](C(=O)NC3CCCCC3)CC[C@H]2C)n1
In short: as §1

encorafenib = compound: COC(=O)N[C@@H](C)CNc1nccc(-c2cn(C(C)C)nc2-c2cc(Cl)cc(NS(C)(=O)=O)c2F)n1 [encorafenib]
In short: as §1

[8] = compound: COC(=O)[C@H](CCSC)NC(=O)C1=C(C=C(C=C1)NC[C@H](CS)N)C2=CC=CC=C2
In short: as §1

alisertib = compound: COc1cc(Nc2ncc3c(n2)-c2ccc(Cl)cc2C(c2c(F)cccc2OC)=NC3)ccc1C(=O)O [alisertib]
In short: as §1

[9] = compound: COc1cc2nc(-c3cc(F)ccc3O)nc(N[C@@H]3CNC[C@H]3C(C)(C)O)c2cc1OC
In short: as §1

gefitinib = compound: COc1cc2ncnc(Nc3ccc(F)c(Cl)c3)c2cc1OCCCN1CCOCC1 [gefitinib]
In short: as §1

Measured: log2 fold change

LAMB1 (UniProt P07942)
inactive: vemurafenib -0.035 | [1] 0 | barasertib 0.053 | [2] 0.021 | volasertib 0.014 | [3] 0.007 | [4] 0.049 | [5] 0.006 | saracatinib 0.044 | sotrastaurin 0.022 | alvocidib -0.034 | Tubastatin A -0.002 | [6] -0.013 | defactinib 0.016 | [7] -0.021 | encorafenib -0.013 | [8] 0.001 | alisertib 0.079 | [9] -0.016 | gefitinib -0.084

KPNA1 (UniProt P52294)
inactive: vemurafenib 0.002 | [1] 0.037 | barasertib -0.005 | [2] -0.126 | volasertib -0.036 | [3] -0.017 | [4] -0.005 | [5] -0.041 | saracatinib -0.004 | sotrastaurin 0.042 | alvocidib -0.018 | Tubastatin A -0.033 | [6] 0.019 | defactinib -0.011 | [7] -0.026 | encorafenib 0.011 | [8] 0.092 | alisertib -0.025 | [9] -0.006 | gefitinib 0.011

LANCL2 (UniProt Q9NS86)
inactive: vemurafenib 0.04 | [1] 0.034 | barasertib -0.025 | [2] -0.045 | volasertib -0.025 | [3] -0.014 | [4] 0.001 | [5] -0.007 | saracatinib -0.003 | sotrastaurin -0.016 | alvocidib -0.004 | Tubastatin A 0.009 | [6] 0.032 | defactinib 0.014 | [7] 0.02 | encorafenib 0.053 | [8] -0.015 | alisertib -0.011 | [9] 0.029 | gefitinib -0.04

Two neighbouring entries from above:
LAMB1 (UniProt P07942)
inactive: vemurafenib -0.035 | [1] 0 | barasertib 0.053 | [2] 0.021 | volasertib 0.014 | [3] 0.007 | [4] 0.049 | [5] 0.006 | saracatinib 0.044 | sotrastaurin 0.022 | alvocidib -0.034 | Tubastatin A -0.002 | [6] -0.013 | defactinib 0.016 | [7] -0.021 | encorafenib -0.013 | [8] 0.001 | alisertib 0.079 | [9] -0.016 | gefitinib -0.084

KPNA1 (UniProt P52294)
inactive: vemurafenib 0.002 | [1] 0.037 | barasertib -0.005 | [2] -0.126 | volasertib -0.036 | [3] -0.017 | [4] -0.005 | [5] -0.041 | saracatinib -0.004 | sotrastaurin 0.042 | alvocidib -0.018 | Tubastatin A -0.033 | [6] 0.019 | defactinib -0.011 | [7] -0.026 | encorafenib 0.011 | [8] 0.092 | alisertib -0.025 | [9] -0.006 | gefitinib 0.011

More results:

KLC4 isoform 3 (UniProt Q9NSK0)
inactive: vemurafenib -0.038 | [1] 0.02 | barasertib -0.008 | [2] 0.038 | volasertib -0.029 | [3] 0.052 | [4] 0.011 | [5] -0.018 | saracatinib -0.012 | sotrastaurin 0.003 | alvocidib -0.01 | Tubastatin A -0.091 | [6] -0.008 | defactinib 0.014 | [7] -0.084 | encorafenib 0.014 | [8] 0.007 | alisertib 0.014 | [9] 0.014 | gefitinib -0.028

KIF4B (UniProt Q2VIQ3)
inactive: vemurafenib -0.026 | [1] 0.047 | barasertib -0.015 | [2] -0.102 | volasertib -0.003 | [3] 0.009 | [4] 0.007 | [5] -0.073 | saracatinib -0.002 | sotrastaurin -0.01 | alvocidib -0.01 | [6] 0.024 | defactinib 0.008 | [7] -0.039 | encorafenib 0.034 | [8] 0.146 | alisertib -0.018 | [9] -0.006 | gefitinib -0.018
active: Tubastatin A -0.207

LAMTOR4 (UniProt Q0VGL1)
inactive: vemurafenib -0.028 | [1] 0.015 | barasertib 0.09 | [2] 0.044 | volasertib 0.029 | [3] -0.028 | [4] -0.08 | [5] 0.053 | saracatinib 0.031 | sotrastaurin -0.012 | alvocidib 0 | Tubastatin A 0.081 | [6] -0.009 | defactinib 0.001 | [7] 0.041 | encorafenib 0.035 | [8] -0.029 | alisertib 0.066 | [9] 0.014 | gefitinib 0.013

KIF15 (UniProt Q9NS87)
inactive: vemurafenib -0.01 | [1] 0.045 | barasertib 0.016 | [2] -0.018 | volasertib -0.053 | [3] 0.036 | [4] 0.006 | [5] -0.036 | saracatinib 0.019 | sotrastaurin 0 | alvocidib -0.002 | Tubastatin A -0.058 | [6] 0.006 | defactinib -0.011 | [7] 0.006 | encorafenib 0.01 | [8] 0.121 | alisertib -0.013 | [9] -0.014 | gefitinib 0.003

KLHL36 (UniProt Q8N4N3)
inactive: vemurafenib 0.024 | [1] 0.106 | barasertib -0.088 | [2] 0.077 | volasertib -0.127 | [3] 0.1 | [4] -0.006 | [5] -0.048 | saracatinib -0.031 | sotrastaurin 0.099 | alvocidib 0.046 | Tubastatin A 0.04 | [6] -0.032 | defactinib 0.039 | [7] 0.017 | encorafenib 0.031 | [8] -0.078 | alisertib 0.032 | [9] -0.009 | gefitinib -0.074

— the supplement of paper PMC10849652
